Measurements published in paper PMC10566113.
These are yes or no findings as the source states them, for the method shown. Binding seen in cells or lysates may run through a third protein. Some results given as binding are weak or reduced against the parent protein; the word gives no strength.

Sequences of proteins named here, by UniProt entry; tags and fusion partners are left off.
UniProt P25490: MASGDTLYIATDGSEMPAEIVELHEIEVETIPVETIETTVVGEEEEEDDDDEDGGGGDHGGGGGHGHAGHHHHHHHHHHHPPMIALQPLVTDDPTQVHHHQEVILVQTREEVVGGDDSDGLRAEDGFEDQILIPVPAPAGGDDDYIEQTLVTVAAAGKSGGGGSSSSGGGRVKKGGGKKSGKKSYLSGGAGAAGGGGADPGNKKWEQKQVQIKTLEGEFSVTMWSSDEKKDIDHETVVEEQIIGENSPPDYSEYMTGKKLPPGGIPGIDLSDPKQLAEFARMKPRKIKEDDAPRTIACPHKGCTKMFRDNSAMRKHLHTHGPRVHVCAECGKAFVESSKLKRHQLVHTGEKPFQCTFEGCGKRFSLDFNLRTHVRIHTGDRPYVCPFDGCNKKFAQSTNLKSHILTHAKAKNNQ
UniProt Q09472: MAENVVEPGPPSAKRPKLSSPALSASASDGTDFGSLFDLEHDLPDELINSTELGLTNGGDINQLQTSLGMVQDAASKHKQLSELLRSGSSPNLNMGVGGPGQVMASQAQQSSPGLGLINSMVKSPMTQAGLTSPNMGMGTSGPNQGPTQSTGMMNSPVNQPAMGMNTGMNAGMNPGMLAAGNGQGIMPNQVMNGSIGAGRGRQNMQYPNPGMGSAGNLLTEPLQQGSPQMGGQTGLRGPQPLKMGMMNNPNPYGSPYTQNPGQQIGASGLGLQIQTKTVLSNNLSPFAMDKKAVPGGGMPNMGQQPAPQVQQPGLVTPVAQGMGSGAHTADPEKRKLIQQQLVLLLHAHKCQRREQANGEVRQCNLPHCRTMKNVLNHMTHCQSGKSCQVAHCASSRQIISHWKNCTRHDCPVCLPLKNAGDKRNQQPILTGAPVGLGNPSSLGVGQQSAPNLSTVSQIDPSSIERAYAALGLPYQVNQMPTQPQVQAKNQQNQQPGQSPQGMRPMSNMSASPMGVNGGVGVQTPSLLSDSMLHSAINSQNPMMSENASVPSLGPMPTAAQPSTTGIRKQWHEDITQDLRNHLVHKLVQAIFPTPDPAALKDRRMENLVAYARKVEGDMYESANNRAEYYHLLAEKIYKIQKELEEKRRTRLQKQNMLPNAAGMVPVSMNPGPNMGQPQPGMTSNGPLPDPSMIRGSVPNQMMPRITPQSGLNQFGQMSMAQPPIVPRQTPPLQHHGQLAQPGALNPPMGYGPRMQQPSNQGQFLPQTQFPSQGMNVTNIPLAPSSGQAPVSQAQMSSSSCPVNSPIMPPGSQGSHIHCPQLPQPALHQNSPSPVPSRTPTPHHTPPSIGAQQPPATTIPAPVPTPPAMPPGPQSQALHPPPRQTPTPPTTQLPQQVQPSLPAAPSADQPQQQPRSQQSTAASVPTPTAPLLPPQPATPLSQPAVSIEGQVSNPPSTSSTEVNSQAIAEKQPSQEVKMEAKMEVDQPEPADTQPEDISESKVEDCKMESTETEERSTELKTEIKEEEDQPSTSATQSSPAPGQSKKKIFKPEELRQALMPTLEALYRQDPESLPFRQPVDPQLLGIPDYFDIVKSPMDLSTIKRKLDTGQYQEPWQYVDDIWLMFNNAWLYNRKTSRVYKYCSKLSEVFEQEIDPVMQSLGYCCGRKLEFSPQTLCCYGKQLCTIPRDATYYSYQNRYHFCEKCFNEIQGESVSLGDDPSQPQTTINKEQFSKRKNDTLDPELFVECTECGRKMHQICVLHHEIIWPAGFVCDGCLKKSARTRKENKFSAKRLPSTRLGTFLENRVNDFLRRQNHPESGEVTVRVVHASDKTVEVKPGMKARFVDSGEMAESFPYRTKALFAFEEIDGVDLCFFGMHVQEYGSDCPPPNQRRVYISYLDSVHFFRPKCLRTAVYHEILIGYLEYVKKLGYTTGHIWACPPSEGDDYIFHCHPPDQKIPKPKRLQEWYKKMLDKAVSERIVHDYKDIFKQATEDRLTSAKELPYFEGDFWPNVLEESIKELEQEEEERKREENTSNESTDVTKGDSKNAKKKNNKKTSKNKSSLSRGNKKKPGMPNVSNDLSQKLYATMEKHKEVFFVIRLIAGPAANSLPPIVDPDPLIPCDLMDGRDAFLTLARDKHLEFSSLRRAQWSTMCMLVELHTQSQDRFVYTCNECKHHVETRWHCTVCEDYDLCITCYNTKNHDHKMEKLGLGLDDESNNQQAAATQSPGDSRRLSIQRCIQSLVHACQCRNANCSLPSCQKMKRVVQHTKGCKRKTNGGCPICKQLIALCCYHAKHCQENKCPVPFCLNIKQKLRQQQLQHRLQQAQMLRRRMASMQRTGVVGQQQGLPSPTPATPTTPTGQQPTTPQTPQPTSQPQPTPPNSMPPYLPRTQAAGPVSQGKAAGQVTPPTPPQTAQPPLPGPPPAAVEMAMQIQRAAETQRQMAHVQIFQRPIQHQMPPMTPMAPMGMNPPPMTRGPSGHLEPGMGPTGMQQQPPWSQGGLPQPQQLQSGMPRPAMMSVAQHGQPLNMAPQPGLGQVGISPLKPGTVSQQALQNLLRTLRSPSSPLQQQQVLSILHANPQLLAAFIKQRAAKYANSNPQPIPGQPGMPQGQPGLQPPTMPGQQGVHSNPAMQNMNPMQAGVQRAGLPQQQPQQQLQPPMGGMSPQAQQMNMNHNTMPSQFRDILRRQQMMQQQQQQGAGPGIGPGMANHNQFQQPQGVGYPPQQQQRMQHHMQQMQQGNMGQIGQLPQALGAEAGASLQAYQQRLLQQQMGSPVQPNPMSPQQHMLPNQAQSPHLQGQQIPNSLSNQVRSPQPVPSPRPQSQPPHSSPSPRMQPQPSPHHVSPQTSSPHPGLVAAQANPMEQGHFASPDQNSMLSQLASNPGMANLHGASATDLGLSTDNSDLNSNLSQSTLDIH

Target: transcription factor YY1 (human (endogenous in CCLP1 and HuCCT1)) (UniProt P25490)
Test: co-IP; immunoprecipitation assay in CCLP1 and HuCCT1 cells; which protein was precipitated and the buffer are not told

binding: binds
Substance: histone acetyltransferase p300 (from UniProt Q09472 1-2414)
